According to US20210032655A1:
These are yes or no findings as the source states them, for the method shown. Some binding calls cover weakened binding; strength is not graded here.

Experiments:
minocycline dAb-Fc [1] = assay: peptide binding to minocycline dAb versus control antibody, FIG. 4
minocycline dAb-Fc [2] = assay: statement in Example 2 about the dAb/peptide platform; method not given
minocycline dAb-Fc [3] = assay: phage-peptide colony screening on bead-immobilised dAb-Fc, with and without 1 µM minocycline

Measured: binding

ACPGWARAFC [peptide … (SEQ ID NO: 34)]
binds: all assays above

ACPHWAQAFC [peptide … (SEQ ID NO: 35)]
binds: all assays above

ACPQWAMMFC [peptide … (SEQ ID NO: 36)]
binds: all assays above

ACPPWAYSFC [peptide … (SEQ ID NO: 37)]
binds: all assays above
